Screen size: about 3,000 compounds; about 45 (2%) showed an effect of 50% or more. The list shows a part of the results.
tested on: MOLM1 and UCSD/AML1 (averaged); experiment: cell viability relative to DMSO control (POC); higher = less growth inhibition; settings: 1 µM; 72 h
Experimental: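 Primary viability screen in the 3q26 EVI1-high AML cell lines MOLM1 and UCSD/AML1, compounds at 1 uM for 72 h. ATP CellTiter-Glo read-out given as percent viable over DMSO control (POC), averaged over duplicates. This mapping covers the TimTec NDL-3000 natural derivative library, whose compounds are identified by TimTec catalogue codes (ST...).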

SMILES | cell viability [%]
COC(=O)/C=C/c1cc(OC)c(OC)c(OC)c1 | 101
CCN(CC)c1ccc(C2C3CCCCC3(O)CCN2C(=O)/C=C/c2ccc(C(C)C)cc2)cc1 (stereo not drawn) | 88
COC(=O)c1c(C)nc(C)c2c(=O)[nH]c3cc(OC)c(OC)cc3c12 | 86.5
Cc1ccc(-n2c(SCc3nc(-c4cccc(C)c4)oc3C)nc3c(=O)[nH]cnc32)cc1 | 107
O=C(Cn1c(=O)cc(C(=O)N2CCCCC2)c2ccccc21)Nc1ccc(Br)cc1 | 98
CC(C)CC(NC(=O)C(NC(=O)C1OC2OC(C)(C)OC2C2OC(C)(C)OC12)C(C)C)C(=O)O (stereo not drawn) | 96.4
Cc1cc2c(C(C)C)c(O)c(O)c(C=Nc3ccc4c(c3)CCN4S(C)(=O)=O)c2c(O)c1-c1c(C)cc2c(C(C)C)c(O)c(O)c(C=Nc3ccc4c(c3)CCN4S(C)(=O)=O)c2c1O | 111
O=C(CN(c1cccc([N+](=O)[O-])c1)S(=O)(=O)c1ccccc1)N1CCc2ccccc2C1 | 103
COc1ccc(Nc2nc(N3CCN(c4nc(-c5ccccc5)cs4)CC3)nc3ccccc23)c(OC)c1 | 86
COc1ccc(-c2coc3cc(OC)c(OC)cc3c2=O)cc1OC | 99.8
O=C(O)c1cc(O)c2ccccc2c1O | 87.5
COc1ccc(C(=O)NC(=S)Nc2cc(C(F)(F)F)ccc2Cl)cc1OC | 99.4
COc1ccc(C(=O)Nc2ccccc2C(=O)N2CCCCC2C)c(OC)c1OC (stereo not drawn) | 106
O=C(/C=C/c1ccccc1Cl)Oc1ccc(C=Nc2cccc(C(F)(F)F)c2)cc1 | 106
Cc1ccc2c(c1)c1c(n2C)CC[N+](C)(C)C1 | 99.1
COc1ccc(C(=O)Nc2cccc(C3OCCCO3)c2)cc1OC | 96.9
COc1cccc(C=Nc2ccc3cc4ccc(N=Cc5cccc(OC)c5O)cc4nc3c2)c1O | 2.39
Cc1[nH]c2c(C)cccc2c(=O)c1CN1CCCC1 | 101
CC(C)C(=O)Nc1nc2c(ncn2C2CC(OC(=O)C(C)C)C(CO)O2)c(=O)[nH]1 (stereo not drawn) | 103
O=C(/C=C/c1ccc(O)cc1)c1ccc(O)cc1O | 102
COCCCN1C(=O)/C(=C/c2ccc3c(c2)OCO3)SC1=S | 95.6

As entered above:
Entry of Cc1[nH]c2c(C)cccc2c(=O)c1CN1CCCC1 under cell viability [%]: 101
Entry of COc1ccc(-c2coc3cc(OC)c(OC)cc3c2=O)cc1OC under cell viability [%]: 99.8

Going on with the list.

SMILES | cell viability [%]
O=C(/C=C/c1ccccc1O)c1ccccc1O | 77.6
C=C(CBr)C1Cc2c(ccc3c2OC2COc4cc(OC)c(OC)cc4C2C3=O)O1 (stereo not drawn) | 60.9
CCCNC(=O)c1cc(=O)n(CC(=O)Nc2cc(F)ccc2F)c2ccccc12 | 100
CCn1c2ccccc2c2cc(/C=N/NC(=O)c3cc(OC)c(OC)c(OC)c3)ccc21 | 10.7
CCOC(=O)c1ccc(OC)c(OC)c1 | 104
O=C(/C=C/c1c(Cl)cccc1Cl)c1ccc2ccccc2c1O | 117
Cn1c(=O)c2c(nc(Br)n2Cc2ccccc2Cl)n(C)c1=O | 102
COc1cccc(C(=O)CC2OC(=O)c3c2ccc(OC)c3OC)c1 (stereo not drawn) | 96.1
O=C(Nc1ccc2nn(-c3ccc(Cl)cc3)nc2c1)c1ccc2c(c1)OCCO2 | 94.4
Cc1cc(C)c2c(c1)OC(N)(C(Cl)(Cl)Cl)CC2=O (stereo not drawn) | 79.3
CC(=O)O[C@@H]1CC[C@@]2(C)[C@H](CC[C@@H]3[C@@H]2C[C@H](OC(C)=O)[C@]2(C)[C@@H](C(C)=O)CC[C@@H]32)C1 | 77.3
O=C(Cn1c(=O)cc(C(=O)N2CCc3ccccc3C2)c2ccccc21)NCc1ccc2c(c1)OCO2 | 99.8
COc1ccc(C=O)cc1OC(=O)N1CCOCC1 | 104
COc1cc(C(=O)CCNc2ccc(Oc3ccc(Cl)cc3)cc2)cc(OC)c1OC | 98.1
COc1ccc2c(=O)c(O)c(-c3ccccc3)oc2c1 | 62.7
COc1ccc(Cl)cc1NC(=O)CSc1nc2c(=O)[nH]cnc2n1-c1ccc(C)cc1 | 99.3
CC(=O)NC(Cc1c[nH]c2ccccc12)C(=O)O (stereo not drawn) | 90.8
COc1cc(OC)c(C(=O)/C=C/c2ccc(O)cc2)c(OC)c1 | 100
COc1ccc(C(=O)Cn2c(=O)c3ccccc3n(C)c2=O)cc1OC | 107
CSc1cccc(NC(=O)CSc2nc3c(=O)[nH]cnc3n2-c2ccccc2)c1 | 94.5
CCN(CC)C(=O)c1cccc(NCCC(=O)c2ccc3c(c2)OCO3)c1 | 91.6

SMILES | cell viability [%]
COc1ccc(C2c3[nH]c4ccccc4c3CCN2C(=O)c2ccccc2Br)cc1 (stereo not drawn) | 98.6
Cc1c(-c2cccc(Cl)c2)c(=O)oc2ccc(O)cc12 | 108
COc1ccc2c(c1)c(CC(=O)OCC(N)=O)c(C)n2C(=O)c1ccc(Cl)cc1 | 73.1
O=C1N=c2ccc(Br)cc2=C1c1sc(=S)n(C(Cc2ccccc2)C(=O)O)c1O (stereo not drawn) | 84.7
CCCNC(=O)c1cc2ccc(OC(=O)c3ccccc3I)cc2oc1=O | 83.3
O=C(O)c1cc(=O)[nH]c2ccccc12 | 91.2
O=C(Cn1c(=O)cc(C(=O)N2CCCCC2)c2ccccc21)Nc1ccc(F)cc1 | 89.9
CCOc1cc(C2C3CCCCC3(O)CCN2CC(=O)Nc2ccc(Cl)cc2Cl)ccc1O (stereo not drawn) | 94.2
CCOC(=O)CCC(=O)Nc1ccccc1C(=O)Nc1ccccc1 | 114
Cc1cc(C)c2c(CN3CCN(C4CCCCC4)CC3)cc(=O)oc2c1 | 102
CC1(C)CC(=O)C2=C(C1)Nc1ccccc1N(C(=S)Nc1ccccc1)C2c1ccc(Cl)cc1 (stereo not drawn) | 89.9
COc1cc(OC)cc(C(=O)c2ccc(C(=O)Nc3cc(Oc4ccc(F)cc4)cc([N+](=O)[O-])c3)cc2)c1 | 109
Cc1ccc2c(CN3CCN(CC(=O)Nc4cc(C(F)(F)F)ccc4Cl)CC3)cc(=O)oc2c1 | 121
COc1cc([C@H]2OC[C@@H]3C(c4ccc(OC5OC(COC6OC(C)C(O)C(O)C6O)C(O)C(O)C5O)c(OC)c4)OC[C@H]23)ccc1O (stereo partly drawn) | 109
COc1cccc(C2NC(C)(C(=O)O)C3C(=O)N(C)C(=O)C23)c1O (stereo not drawn) | 88.1
COc1cc(OC)cc(C(=O)NCCOc2ccccc2)c1 | 94.8
CC(c1ccccc1)C(N)C(=O)O (stereo not drawn) | 92.6
Cn1c(=O)c2c(nc(SCC(=O)Nc3ccc(OC(F)(F)F)cc3)n2Cc2ccccc2F)n(C)c1=O | 92.8
CCN(CC)C(=O)c1ccc(OCCNC(C)=O)c(OC)c1 | 106
CC1CCN(C(=O)c2cc(=O)n(CC(=O)Nc3ccc(F)c(Cl)c3)c3ccccc23)CC1 | 105
COc1ccc(C2C3CCCCC3(O)CCN2CC(=O)Nc2ccc(Cl)cc2Cl)cc1 (stereo not drawn) | 103

Reference: the supplement of paper PMC11150407
